PubChem BioAssay AID493014 (National Center for Advancing Translational Sciences (NCATS), 2011)
This is one part of the list. Further columns of the screen follow, without active or inactive calls. Most of these compounds were active or inconclusive in the main read-out, so they are no random draw. Potencies come from curve fits of mixed quality, noted in brackets.

Test: qHTS Assay to Find Inhibitors of Chronic Active B-Cell Receptor Signaling
Conditions: ABC-DLBCL IkBa-CBG/CBR reporter, luminescence ratio (green luciferase fused to IkBa over red control in TMD8 lymphoma cells), 4 h
Procedure, shortened: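 Compounds up to 46 uM were incubated four hours with TMD8 cells whose green CBG68 luciferase is fused to IkappaBalpha; red CBR luminescence normalised the signal, and concentration-effect curves were fitted to fusion, red and ratio data.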

[1] = measured here: CBR red luminescence, cell number
[2] = measured here: IkBa-CBG green luminescence

Structure (SMILES)	AC50 [1]	AC50 [2]
CCS(=O)(=O)N1CCN(c2cccc(C)c2C)CC1	22.4 µM [rising, single point]	
Cc1ccccc1NC(=O)c1ccc([N+](=O)[O-])o1	28.2 µM [falling, single point]	
CCOC(=O)c1cn(Cc2cccc(Cl)c2)c2cc(C)nn2c1=O	3.16 µM [rising, full curve, poor fit]	
Cc1ccc(NC(=O)/C(C#N)=N/Nc2ccc(C(=O)O)cc2)c(C)c1	0.316 µM [falling, full curve]	
COc1ccc(-c2ncccc2OC(=O)C23CC4CC(CC(C4)C2)C3)cc1	16.4 µM [rising, partial curve, poor fit]	
CC(C)(C)S(=O)(=O)c1cnc(N2CCOCC2)nc1N	0.891 µM [rising, full curve, poor fit]	
CCCc1ccc(S(=O)(=O)NCCc2ccncc2)cc1	10.3 µM [falling, single point]	
COc1ccc(C(=O)N/N=C(\C)CC(=O)N2CCN(C=O)CC2)cc1	14.6 µM [falling, partial curve]	
Cc1ccc(NC(=O)CN(C)C(=O)COC(=O)/C=C/c2cccs2)cc1	1.3 µM [rising, full curve, poor fit]	
Cc1cccc(C(=O)Nc2scc(CC(C)C)c2C(=O)O)c1	11.6 µM [falling, partial curve]	
COc1ccc(C2CC(c3cccs3)=NN2S(C)(=O)=O)cc1OC (stereo not drawn)	35.5 µM [rising, single point]	
Cc1[nH]n(C)c(=O)c1C(=O)c1c(-c2ccccc2Cl)noc1C	5.62 µM [falling, full curve, poor fit]	
Cc1ccc(C(=O)Nc2ccccc2C(=O)NC(CC(=O)O)C(=O)O)cc1 (stereo not drawn)	11.2 µM [falling, single point]	
Cc1nc(N)sc1N=Nc1ccc(F)cc1	32.6 µM [falling, single point]	
O=C(CSc1ccc(-c2ccco2)nn1)N1CCCCCC1	8.91 µM [falling, partial curve]	14.1 µM [rising, partial curve, poor fit]
Cc1cc(C)cc(NC(=S)N(Cc2ccc(Cl)cc2)Cc2ccc(C(=O)O)cc2)c1		12.6 µM [rising, partial curve, poor fit]
COc1ccc(C2(CNC(C)=O)CCOCC2)cc1OC	0.517 µM [rising, full curve, poor fit]	
CCC(=O)N1CCN(c2ccc(NC(=O)c3cc4ccccc4o3)cc2Cl)CC1	29.1 µM [falling, single point]	29.1 µM [rising, single point]
COC1CC(C)NC(=S)N1 (stereo not drawn)	3.16 µM [falling, partial curve, poor fit]	
Cc1ccc(S(=O)(=O)N(C)c2ccc(C(=O)Nc3ccc(C)cn3)cc2)cc1	2.59 µM [falling, partial curve, poor fit]	
Fc1ccc2cnc(C3=CCCCC3)cc2c1	32.6 µM [rising, partial curve, poor fit]	
CCOC(=O)c1c(S(=O)(=O)N2CCCC(C(=O)Nc3cc(C)ccn3)C2)c(C)n(C)c1C (stereo not drawn)	25.1 µM [falling, single point]	

Structure (SMILES)	AC50 [1]	AC50 [2]
COc1cccc(CNC(=O)N2CCN(c3ccccc3Cl)CC2)c1	7.94 µM [falling, partial curve]	
COc1ccc(OC)c(C(c2nnnn2CCc2ccccc2)N2CCN(c3ccccc3)CC2)c1 (stereo not drawn)	7.08 µM [rising, full curve, poor fit]	
COc1ccc(C(=O)Nc2nccs2)cc1	15.8 µM [falling, single point]	
Cc1cccc(-n2cc(-c3ccccc3)c3c(NC4CCCC4)ncnc32)c1	12.6 µM [rising, partial curve]	
CC(C)N(C)C1CCN(S(=O)(=O)c2ccc(-c3ccc(=O)[nH]n3)s2)CC1	5.62 µM [falling, partial curve, poor fit]	
CSc1nc(C)c2c(n1)N(c1ccc(O)cc1)CC2	1.26 µM [rising, full curve, poor fit]	
Nc1ncnc2c1ncn2[C@@H]1O[C@H](COP(=O)(O)OP(=O)(O)OP(=O)(O)O)[C@@H](O)[C@H]1O		18.4 µM [falling, partial curve]
C[C@]12CCC3C(CC[C@H]4CCCC[C@]34C)C1CC[C@@]2(O)CNCCO (stereo partly drawn)	0.447 µM [rising, full curve]	
COc1ccccc1NCC(=O)N/N=C/c1sccc1C	2.51 µM [falling, partial curve, poor fit]	
CC(=O)Nc1ccc(C(=O)OCC(=O)c2cccc([N+](=O)[O-])c2)cc1	29.1 µM [rising, single point]	
Cc1cccc(C(=O)NNC(=O)c2ccc(Br)cc2)c1	12.6 µM [falling, single point]	
COc1ccc(C(=S)N2CCOCC2)cc1OC(=O)c1ccc(C)cc1	35.5 µM [rising, single point]	
O=C1c2cccc(OCC(=O)N3CCCc4ccccc43)c2CCN1Cc1ccc(Br)cc1	13 µM [falling, partial curve]	
C=CS(=O)(=O)c1ccc(Oc2ccc(S(=O)(=O)C=C)cc2)cc1	1.46 µM [falling, full curve]	
Cc1cc(C)nc(/N=C(\N)Nc2cccc(OCc3ccccc3)c2)n1	15.8 µM [rising, single point]	22.4 µM [falling, single point]
CCOC(=O)C1CCN(C(=O)C2(NC(=O)Nc3cccc(F)c3)CCCCC2)CC1	3.98 µM [rising, full curve, poor fit]	
CNC(=S)N/N=C(\C)c1ccc2c(c1)OCCO2		29.1 µM [falling, partial curve, poor fit]
CCOc1ccc2nc(NC(=O)C3CCCN(S(=O)(=O)c4c(C)noc4C)C3)sc2c1 (stereo not drawn)	11.2 µM [falling, partial curve, poor fit]	
O=C(Nc1ccc(Br)cc1)N1CCCCC1	15.8 µM [falling, single point]	
CC1(C)C(C=C(Cl)Cl)C1C(=O)N(Cc1cccc(Cl)c1)C1CCS(=O)(=O)C1 (stereo not drawn)	32.6 µM [falling, single point]	
N#Cc1cc(C(=O)c2ccccc2OCC(=O)Nc2ccccc2Cl)cn(C2CCCCC2)c1=O	5.17 µM [falling, partial curve, poor fit]	
Cc1ccoc1C(=O)Nc1ccc2ccccc2c1	8.91 µM [falling, partial curve]	

Structure (SMILES)	AC50 [1]	AC50 [2]
COc1cccc2cc(C(C)N(CCCN3CCOCC3)C(=S)Nc3cc(C)cc(C)c3)oc12 (stereo not drawn)	31.6 µM [falling, single point]	
C/C(=N/NC(=O)c1ccccc1)C(=O)O	14.1 µM [falling, single point]	
CCOc1cc(C(=O)Nc2ccncc2)cc(OCC)c1OCC	22.4 µM [falling, partial curve]	
COc1ccc2nc(NC(=O)Nc3ccccc3)sc2c1	14.1 µM [falling, partial curve]	
CCn1cc(Cl)c(C(=O)N2N=C(c3ccc4ccccc4c3)CC2c2ccccc2O)n1 (stereo not drawn)	29.1 µM [falling, single point]	23.1 µM [falling, single point]
c1ccc(NC2=Nc3cccc4cccc2c34)cc1	12.6 µM [falling, single point]	
COc1cc(/C=C/C(=O)OC(C)C(=O)NC2CCCCC2C)cc(Cl)c1OC (stereo not drawn)	3.66 µM [rising, full curve, poor fit]	
COc1ccccc1CNC(=O)c1cc(-c2ccccc2)n(Cc2cc(C)no2)n1	29.1 µM [falling, partial curve, poor fit]	
CCC(C(=O)O/N=C(\N)c1cccc(C)c1)c1ccccc1 (stereo not drawn)	16.4 µM [rising, single point]	
NC(=S)Nc1nc2ccccc2[nH]c1=O	2.06 µM [rising, partial curve, poor fit]	
CCc1cc(C(=O)c2ccc(OC)cc2)c(NC(=O)CN2CCCCC2)s1	5.01 µM [rising, full curve]	
Cc1ccccc1N1CCN(C2CCCN(C(=O)c3noc4c3CCCC4)C2)CC1 (stereo not drawn)	35.5 µM [falling, single point]	
CNC(=O)NC(=O)C(C)OC(=O)c1ccc(Cl)c(S(=O)(=O)Nc2ccc(F)cc2)c1 (stereo not drawn)	35.5 µM [rising, single point]	
O=C(NCc1ccc(Cl)cc1)c1ccc(COCC(F)(F)F)o1	2.91 µM [falling, partial curve, poor fit]	
Cc1cc(/C=N/NC(=O)c2ccc(O)cc2)c(C)n1C1CC1	2.51 µM [falling, full curve]	
CCN(CC)C(=O)CSc1nc2c(sc(=S)n2-c2ccccc2)c(=O)n1Cc1ccco1	0.259 µM [falling, full curve, poor fit]	
NNc1cc(C(=O)O)ccc1Cl	10 µM [rising, partial curve, poor fit]	
CCn1cc(C(=O)NCc2ccccc2OC)c(=O)c2cc(S(=O)(=O)N(C)C)ccc21	2.06 µM [rising, partial curve, poor fit]	
CCOC(=O)N1CCN(C(=O)c2nc3ccccc3s2)CC1	29.1 µM [falling, single point]	
CCOC(=O)CSc1nc(C2CC2)nc2ccccc12	22.4 µM [falling, single point]	

A draw from above in order of count of non-hydrogen atoms, descending.
Structure (SMILES)	AC50 [1]	AC50 [2]
CCn1cc(C(=O)NCc2ccccc2OC)c(=O)c2cc(S(=O)(=O)N(C)C)ccc21	2.06 µM [rising, partial curve, poor fit]	
COc1ccccc1CNC(=O)c1cc(-c2ccccc2)n(Cc2cc(C)no2)n1	29.1 µM [falling, partial curve, poor fit]	
CCOC(=O)N1CCN(C(=O)c2nc3ccccc3s2)CC1	29.1 µM [falling, single point]	
